Experimental data taken from PubChem BioAssay AID1487 (National Center for Advancing Translational Sciences (NCATS), 2009).
This is one part of the list. Shown are side measurements of this screen, not its main read-out; they come without a call. Compounds called inactive in the main read-out are mostly missing here. The note in brackets gives the kind of curve behind each potency; many fits are weak.

Test: qHTS Assay for Modulators of Lamin A Splicing
Conditions: HeLa LMNA splicing GFP/RFP minigene ratio, 48 h
Summary of the method: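 S3 HeLa cells stably expressing lamin A-EGFP splicing minigene plus DsRed2, 600 cells/well, 48 h compound exposure at 37C. Laser-scanning cytometry; analysed as GFP (500-530 nm)/RFP (575-640 nm) total intensity ratio; 0.5% DMSO vehicle.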

[1] = measured here: GFP splicing reporter channel
[2] = measured here: RFP viability control channel

| SMILES | AC50 [1] | AC50 [2] |
| --- | --- | --- |
| CCCOc1ccc(OCCN2CCCC(C)C2)cc1 (stereo not given) | 11.2 µM [rising, single point] | 12.6 µM [rising, single point] |
| Cc1cccc(N2CCN(C(=O)c3cc(C)oc3C)CC2C)c1 (stereo not given) | 35.5 µM [rising, single point] | 25.1 µM [rising, single point] |
| COC(=O)C1=C(C(=O)OC)[C@@H]2N(C)c3ccc(OC)cc3[C@@]23C[C@@H](C(=O)OC)N(S(=O)(=O)c2ccc(C(F)(F)F)cc2)C3=N1 | 0.447 µM [rising, partial curve, poor fit] |  |
| COc1cccc(Nc2ncc3nc(C)c(=O)n(-c4ccccc4)c3n2)c1 | 12.6 µM [falling, partial curve] |  |
| CS(=O)(=O)N1N=C(c2cccs2)CC1c1ccccc1O (stereo not given) | 0.794 µM [falling, full curve, poor fit] | 1.58 µM [falling, full curve, poor fit] |
| Cc1ccc(N(C)C(=O)c2cc(S(=O)(=O)N3CCOCC3)cn2C)cc1 | 10 µM [falling, partial curve, poor fit] | 0.0708 µM [falling, full curve, poor fit] |
| Cc1cc(NC(=O)CSc2nnc(-c3ccc(Br)o3)n2Cc2ccccc2)no1 | 20 µM [rising, single point] |  |
| COc1ccc(NC(=O)CSc2nc(N)c3cc4c(nc3n2)CCCC4)cc1 |  | 10 µM [rising, partial curve, poor fit] |
| CCOC(=O)N1CCC(NC(=O)c2cc3sccc3n2CC)CC1 | 20 µM [rising, partial curve, poor fit] | 35.5 µM [rising, single point] |
| Cc1ccc(/C=C(\C#N)c2nn(-c3ccccc3)c(N)c2C#N)cc1 |  | 20 µM [rising, single point] |
| CCOc1ccc(NC(=S)Nc2cc(C)[nH]n2)cc1 | 5.62 µM [rising, partial curve] | 3.98 µM [rising, single point] |
| COc1ccccc1N1CCN(C(=O)c2ccc(Cl)c(S(=O)(=O)NCc3ccco3)c2)CC1 | 3.98 µM [falling, single point] | 35.5 µM [rising, single point] |
| Cc1cccc2[nH]c3c(N4CCN(C(=O)c5ccco5)CC4)ncnc3c12 |  | 12.6 µM [rising, single point] |
| Fc1ccc(NC(=S)N2CCOCC2)cc1Cl |  | 20 µM [rising, partial curve, poor fit] |
| CCOc1ccc(NS(=O)(=O)c2ccc(NC(=O)c3cccnc3)c(OC)c2)cc1 | 0.355 µM [falling, full curve, poor fit] | 0.0891 µM [falling, full curve] |
| CCOC(=O)c1c(NC(=O)C2COc3ccccc3O2)sc(C)c1C (stereo not given) | 22.4 µM [rising, single point] | 25.1 µM [rising, single point] |
| Cc1ccc(SCCC(=O)NCCSCc2ccccc2C)cc1 | 11.2 µM [rising, single point] | 12.6 µM [rising, partial curve] |
| CCOc1ccc(CNC(=O)CCCc2cn(C)c3ccccc23)cc1OC | 0.0501 µM [falling, full curve] |  |
| CN1C(=O)CSc2ccc(C(=O)O)cc21 |  | 0.1 µM [rising, full curve, poor fit] |
| O=C(/C=C\c1cccs1)c1c(O)ccc2ccc(=O)oc12 | 8.91 µM [rising, partial curve, poor fit] | 10 µM [rising, partial curve] |
| N#C/C(=C\c1cc([N+](=O)[O-])ccc1Cl)C(N)=O | 11.2 µM [falling, single point] |  |
| COc1ccc(Cn2ccc3nc(C)c(C(=O)NCc4cccc(OC)c4)cc3c2=O)cc1 |  | 5.01 µM [rising, partial curve] |
| FC(F)(F)C1=CC(c2ccccc2)=NCCN1 | 35.5 µM [rising, single point] | 15.8 µM [rising, single point] |
| Cc1sc2ncnc(SCC#N)c2c1C | 31.6 µM [rising, single point] |  |
| CCCc1nc2ccccc2c(C(=O)OCC(=O)Nc2ccc(S(=O)(=O)N3CCOCC3)cc2)c1CC | 15.8 µM [rising, single point] | 22.4 µM [rising, single point] |
| Cc1nn(-c2ccccc2)cc1C(=S)Nc1ccccc1 | 15.8 µM [rising, single point] | 35.5 µM [rising, single point] |
| Brc1ccc(NCc2cccc3ccccc23)nc1 | 20 µM [rising, partial curve] | 35.5 µM [rising, single point] |

| SMILES | AC50 [1] | AC50 [2] |
| --- | --- | --- |
| CCn1cc2c(n1)-c1c(oc(C(=O)Nc3cccc(C(F)(F)F)c3)c1C)CC2 | 35.5 µM [falling, single point] | 35.5 µM [falling, single point] |
| COCCCN(C(=S)Nc1cccc(Cl)c1)C(C)c1ccncc1 (stereo not given) |  | 17.8 µM [rising, single point] |
| CC(C)c1ccc(/C=N/NC(=O)c2nnn(-c3nonc3N)c2CSC2=NCCS2)cc1 | 22.4 µM [rising, partial curve, poor fit] | 0.891 µM [rising, partial curve, poor fit] |
| CN1CCc2cc3c(c4c2[C@H]1[C@H](O)c1ccccc1-4)OCO3 |  | 10 µM [rising, partial curve] |
| CC(C)(C(N)=O)N1CCN(c2ncc(C(F)(F)F)cc2Cl)CC1 |  | 15.8 µM [rising, partial curve] |
| O=C(CC1C(=O)N(c2ccc(Cl)cc2)C(=S)N1CCc1ccncc1)Nc1ccc(F)cc1 (stereo not given) | 22.4 µM [falling, partial curve] | 22.4 µM [falling, partial curve] |
| CCOC(=O)c1c(C)oc2c1C(=O)c1ccccc1C2=O | 12.6 µM [falling, partial curve] | 5.62 µM [falling, full curve] |
| c1ccc2c(c1)OCC(c1nnc3sc(-c4ccc5c(c4)OCO5)nn13)O2 (stereo not given) | 5.62 µM [rising, single point] | 5.62 µM [rising, single point] |
| Cc1cn2c(=O)cc(COC(=O)c3cccc(NC(=O)c4ccccc4C)c3)nc2s1 | 0.00316 µM [rising, full curve, poor fit] |  |
| Cc1ccc(-n2cccc2/C=C2\C(=N)N3N=C(c4ccco4)SC3=NC2=O)cc1 | 0.0398 µM [falling, full curve] |  |
| CCC1C/C(=C\c2cccnc2)C(=O)/C(=C/c2cccnc2)C1 (stereo not given) |  | 4.47 µM [rising, full curve] |
| O=C(NCc1ccco1)c1ccc(CS(=O)(=O)Cc2ccc(Cl)cc2)o1 | 7.94 µM [rising, partial curve] |  |
| COc1cc(C(=O)c2nccc3cc(OC)c(OC)cc23)c([N+](=O)[O-])cc1OC |  | 3.98 µM [rising, single point] |
| Cc1cc(C)c(S(=O)(=O)Nc2ccc(O)c(Sc3ncn[nH]3)c2)c(C)c1 |  | 35.5 µM [rising, single point] |
| COCCCNC(=O)C1CCN(c2nc3ccc(C)cc3[nH]2)CC1 | 0.562 µM [rising, full curve] | 0.794 µM [rising, full curve, poor fit] |
| COCCN(Cc1nc(-c2ccc(C(F)(F)F)cc2)no1)C(C)C | 2.82 µM [falling, partial curve] |  |
| COc1ccc(/C=N\NC(=O)c2c(C)nc3ccc(Br)cn23)cc1 | 1.26 µM [rising, full curve] | 1.78 µM [rising, full curve] |
| C/C(=N\NC(=O)OC(C)(C)C)c1ccc(-n2ccnc2)cc1 | 0.00398 µM [rising, full curve, poor fit] |  |
| O=C(c1ccc(Cl)cc1)c1cnc(Nc2ccccc2Cl)s1 | 17.8 µM [falling, single point] | 28.2 µM [falling, single point] |
| CC1(C)NC(=O)N(c2ccc([N+](=O)[O-])c(C(F)(F)F)c2)C1=O | 2 µM [falling, full curve, poor fit] | 1.78 µM [falling, full curve, poor fit] |
| CCCCCCc1ccc(O)cc1O | 0.562 µM [falling, full curve] |  |
| CC(C)OC(=O)c1ccc(NC(=O)CSc2nc3ncccc3[nH]2)cc1 | 3.98 µM [falling, partial curve] | 0.00501 µM [falling, full curve, poor fit] |
| O=C(c1nsc(Cl)c1Cl)N1CCCCC1 | 31.6 µM [rising, single point] |  |
| CC1CCN(C(=O)COC(=O)c2ccc3c(c2)OCO3)CC1 |  | 0.562 µM [falling, full curve, poor fit] |
| COc1cc2c(cc1OC)CN(c1ccc(-c3ccccc3OC)nn1)CC2 | 11.2 µM [rising, single point] | 31.6 µM [rising, single point] |
| CC(C)c1cnc2c(c1SCC(=O)Nc1cccc(F)c1)c(=O)n(C)c(=O)n2C | 0.447 µM [rising, full curve, poor fit] | 0.398 µM [rising, full curve, poor fit] |

2 of the compounds above, in CSV form:
SMILES,AC50 [1],AC50 [2]
Cc1cn2c(=O)cc(COC(=O)c3cccc(NC(=O)c4ccccc4C)c3)nc2s1,"0.00316 µM [rising, full curve, poor fit]",
Cc1ccc(-n2cccc2/C=C2\C(=N)N3N=C(c4ccco4)SC3=NC2=O)cc1,"0.0398 µM [falling, full curve]",
